In US5739106A, “Appetite regulating compositions” (priority 1995, dated 1998):
Not every detail of the peptide structures is certain; ends, links or a residue may be inferred. Bridge positions count the residues as written; N and C are the ends. Peptide text beside a SMILES is read from it.

Experiments:
[1] = test system: insulin-stimulated glycogen synthesis in soleus muscle; test: soleus muscle assay; format: cell-based
food intake in mice = test: food intake in food-deprived mice after intraperitoneal injection; format: in vivo
Experimental: Male NIH/Swiss Webster (Hsd:NIHS) mice, 8-10 weeks of age, were obtained from Harlan Sprague Dawley, Madison, Wis. Animals were exposed to 12:12 hour light-dark cycle, with lights off at 18:00, and with room temperature between 22° and 25° C. Water and food (Teklan 7002, Harlan Teklad, Madison, Wis.) were available ad libitum except as indicated below. Animals were adapted to the vivarium environment for at least one week before experiments were carried out.
Rat amylin (AC128) was synthesized by Fmoc solid phase synthesis. […] Peptides were dissolved in sterile water to obtain stock solutions of 1 mg/ml. Further dilutions were made with sterile saline just prior to intraperitoneal injections.
Animals were individually housed and deprived of food for 18-20 hours before experiments. Animals were allowed ad libitum access to water before and during the experiments. Immediately after intraperitoneal injection of rat amylin or CCK-8 or saline, all animals received a pre-weighed pellet of food. Food intake for each animal was measured by weighing the food pellet at 30 minutes following injection and providing food.

CC(C)C[C@H](NC(=O)[C@H](CCCNC(=N)N)NC(=O)[C@H](CCC(N)=O)NC(=O)[C@@H](NC(=O)[C@H](C)NC(=O)[C@@H]1CSSC[C@H](NC(=O)[C@@H](N)CCCCN)C(=O)N[C@@H](CC(N)=O)C(=O)N[C@@H]([C@@H](C)O)C(=O)N[C@@H](C)C(=O)N[C@@H]([C@@H](C)O)C(=O)N1)[C@@H](C)O)C(=O)N[C@@H](C)C(=O)N[C@@H](CC(N)=O)C(=O)N[C@@H](Cc1ccccc1)C(=O)N[C@@H](CC(C)C)C(=O)N[C@H](C(=O)N[C@@H](Cc1c[nH]cn1)C(=O)N[C@@H](CO)C(=O)N[C@@H](CO)C(=O)N[C@@H](CC(N)=O)C(=O)N[C@@H](CC(N)=O)C(=O)N[C@@H](Cc1ccccc1)C(=O)NCC(=O)N1CCC[C@H]1C(=O)N[C@H](C(=O)N[C@@H](CC(C)C)C(=O)N1CCC[C@H]1C(=O)N[C@@H](CO)C(=O)N[C@H](C(=O)N[C@@H](CC(N)=O)C(=O)N[C@H](C(=O)NCC(=O)N[C@@H](CO)C(=O)N[C@@H](CC(N)=O)C(=O)N[C@H](C(=O)N[C@@H](Cc1ccc(O)cc1)C(N)=O)[C@@H](C)O)C(C)C)[C@@H](C)O)C(C)C)C(C)C [^25 Pro^26 Val^25,28 Pro-h-amylin] (H-KCNTATCATQRLANFLVHSSNNFGPVLPSTNVGSNTY-NH2; disulfide 2-7)
agonist activity in the soleus muscle assay [1]: act as amylin agonists | antagonist activity in the soleus muscle assay [1]: negligible antagonist activity

CC[C@H](C)[C@H](NC(=O)[C@@H]1CCCN1C(=O)CNC(=O)[C@H](Cc1ccccc1)NC(=O)[C@H](CC(N)=O)NC(=O)[C@H](CC(N)=O)NC(=O)[C@H](CO)NC(=O)[C@H](CO)NC(=O)[C@H](Cc1c[nH]cn1)NC(=O)[C@@H](NC(=O)[C@H](CC(C)C)NC(=O)[C@H](Cc1ccccc1)NC(=O)[C@H](CC(N)=O)NC(=O)[C@H](C)NC(=O)[C@H](CC(C)C)NC(=O)[C@H](CCCNC(=N)N)NC(=O)[C@H](CCC(N)=O)NC(=O)[C@@H](NC(=O)[C@H](C)NC(=O)[C@@H]1CSSC[C@H](NC(=O)[C@@H](N)CCCCN)C(=O)N[C@@H](CC(N)=O)C(=O)N[C@@H]([C@@H](C)O)C(=O)N[C@@H](C)C(=O)N[C@@H]([C@@H](C)O)C(=O)N1)[C@@H](C)O)C(C)C)C(=O)N[C@@H](CC(C)C)C(=O)N1CCC[C@H]1C(=O)N1CCC[C@H]1C(=O)N[C@H](C(=O)N[C@@H](CC(N)=O)C(=O)N[C@H](C(=O)NCC(=O)N[C@@H](CO)C(=O)N[C@@H](CC(N)=O)C(=O)N[C@H](C(=O)N[C@@H](Cc1ccc(O)cc1)C(N)=O)[C@@H](C)O)C(C)C)[C@@H](C)O [^25,28,29 Pro-h-amylin]
agonist activity in the soleus muscle assay [1]: act as amylin agonists | antagonist activity in the soleus muscle assay [1]: negligible antagonist activity

CC(C)C[C@H](NC(=O)[C@H](CC(N)=O)NC(=O)[C@H](CC(N)=O)NC(=O)[C@H](CO)NC(=O)[C@H](CO)NC(=O)[C@H](CCCNC(=N)N)NC(=O)[C@@H](NC(=O)[C@H](CC(C)C)NC(=O)[C@H](Cc1ccccc1)NC(=O)[C@H](CC(N)=O)NC(=O)[C@H](C)NC(=O)[C@H](CC(C)C)NC(=O)[C@H](CCCNC(=N)N)NC(=O)[C@H](CCC(N)=O)NC(=O)[C@@H](NC(=O)[C@H](C)NC(=O)[C@@H]1CSSC[C@H](NC(=O)[C@@H](N)CCCCN)C(=O)N[C@@H](CC(N)=O)C(=O)N[C@@H]([C@@H](C)O)C(=O)N[C@@H](C)C(=O)N[C@@H]([C@@H](C)O)C(=O)N1)[C@@H](C)O)C(C)C)C(=O)NCC(=O)N1CCC[C@H]1C(=O)N[C@H](C(=O)N[C@@H](CC(C)C)C(=O)N1CCC[C@H]1C(=O)N1CCC[C@H]1C(=O)N[C@H](C(=O)N[C@@H](CC(N)=O)C(=O)N[C@H](C(=O)NCC(=O)N[C@@H](CO)C(=O)N[C@@H](CC(N)=O)C(=O)N[C@H](C(=O)N[C@@H](Cc1ccc(O)cc1)C(N)=O)[C@@H](C)O)C(C)C)[C@@H](C)O)C(C)C [Rat amylin]
effect on food intake (food intake in mice; IP injection of 1.0 μg/kg, peptide alone): no measurable effect | suppressed food intake (food intake in mice; mice, intraperitoneal, 1.0 μg/kg of each peptide, at 30 minutes): -10.5±10.3%
